Data as given in PubChem BioAssay AID652272 (Drosophila RNAi Screening Center, 2013).
Purpose: 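Genes whose knock-down decreases or increases Hedgehog reporter output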 (primary screen). Cell system: Drosophila clone 8 (Cl8) cells. Knock-down reagent: long dsRNA against Drosophila genes. Measured: 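Plate reader light from a firefly reporter under a ptc promoter fragment that responds to Hedgehog, with Renilla light as transfection reference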. Reading the numbers: firefly Hh reporter signal: higher = more ptc reporter light; Renilla reference signal: higher = more Renilla control light. Hit rule: 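Called a hit if the two-replicate mean z-score lies below -2 or above +3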. Meaning of the calls: active = hit: reporter lowered or raised; inactive = not a hit.
In all, the deposit lists about 21,000 reagents; this is an unselected part of those that have a named target and a result. Over the whole deposit, 503 (2.4%) got an active call. 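Raw plate light values, not normalised; calls rest on replicate z-scores that were not deposited; hits include reporter decreases as well as increases.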 The numbers tell different reagents against one gene apart. Reagent sequences are not shown. The record does not give: the amount of reagent, the time to read-out.

PPP1R15 (Protein phosphatase 1 regulatory subunit 15) scored firefly Hh reporter signal, replicate 1 = 64413; firefly Hh reporter signal, replicate 2 = 66278; Renilla reference signal, replicate 1 = 2477; Renilla reference signal, replicate 2 = 2497; inactive.
With knock-down of CG15258, the screen gave firefly Hh reporter signal, replicate 1 = 81744; firefly Hh reporter signal, replicate 2 = 69892; Renilla reference signal, replicate 1 = 2141; Renilla reference signal, replicate 2 = 5896; inactive.
Against Art3 (Arginine methyltransferase 3), the values are firefly Hh reporter signal, replicate 1 = 1.42e5; firefly Hh reporter signal, replicate 2 = 91532; Renilla reference signal, replicate 1 = 5440; Renilla reference signal, replicate 2 = 3568; inactive.
Apoltp (Apolipoprotein lipid transfer particle) showed firefly Hh reporter signal, replicate 1 = 56499; firefly Hh reporter signal, replicate 2 = 31312; Renilla reference signal, replicate 1 = 2355; Renilla reference signal, replicate 2 = 1616; inactive.
For TyrR (Tyramine receptor) #1, the values are firefly Hh reporter signal, replicate 1 = 51510; firefly Hh reporter signal, replicate 2 = 2.44e5; Renilla reference signal, replicate 1 = 10489; Renilla reference signal, replicate 2 = 5800; inactive.
Knock-down of TyrR (Tyramine receptor) #2 gave: firefly Hh reporter signal, replicate 1 = 5.53e5; firefly Hh reporter signal, replicate 2 = 1.39e5; Renilla reference signal, replicate 1 = 23297; Renilla reference signal, replicate 2 = 3507; inactive.
ohgt (ohgata) gave firefly Hh reporter signal, replicate 1 = 72861; firefly Hh reporter signal, replicate 2 = 97024; Renilla reference signal, replicate 1 = 2395; Renilla reference signal, replicate 2 = 2807; inactive.
For Pi4KIIalpha (Phosphatidylinositol 4-kinase II alpha) #1, the entry reads firefly Hh reporter signal, replicate 1 = 1.07e5; firefly Hh reporter signal, replicate 2 = 60396; Renilla reference signal, replicate 1 = 3907; Renilla reference signal, replicate 2 = 2327; inactive.
With knock-down of Pi4KIIalpha (Phosphatidylinositol 4-kinase II alpha) #2 the results were firefly Hh reporter signal, replicate 1 = 99586; firefly Hh reporter signal, replicate 2 = 1.51e5; Renilla reference signal, replicate 1 = 3865; Renilla reference signal, replicate 2 = 4628; inactive.
CG31792 showed firefly Hh reporter signal, replicate 1 = 72337; firefly Hh reporter signal, replicate 2 = 40378; Renilla reference signal, replicate 1 = 1980; Renilla reference signal, replicate 2 = 3741; inactive.
Against rump (rumpelstiltskin) the deposit lists firefly Hh reporter signal, replicate 1 = 90729; firefly Hh reporter signal, replicate 2 = 54273; Renilla reference signal, replicate 1 = 3657; Renilla reference signal, replicate 2 = 2359; inactive.
Against ProRS-m (Prolyl-tRNA synthetase, mitochondrial), the entry reads firefly Hh reporter signal, replicate 1 = 74848; firefly Hh reporter signal, replicate 2 = 51376; Renilla reference signal, replicate 1 = 2245; Renilla reference signal, replicate 2 = 3440; inactive.
For TSG101 (Tumor susceptibility gene 101), the values are firefly Hh reporter signal, replicate 1 = 1.67e5; Renilla reference signal, replicate 1 = 8721; Renilla reference signal, replicate 2 = 4341; inactive.
qkr58E-1 (quaking related 58E-1) gave firefly Hh reporter signal, replicate 1 = 52749; firefly Hh reporter signal, replicate 2 = 53528; Renilla reference signal, replicate 1 = 2360; Renilla reference signal, replicate 2 = 2112; inactive.

Part of the list above in another layout:
gene	reagent no.	firefly Hh reporter signal, replicate 1	firefly Hh reporter signal, replicate 2	Renilla reference signal, replicate 1	Renilla reference signal, replicate 2	Call
CG15258	1	81744	69892	2141	5896	inactive
Art3 (Arginine methyltransferase 3)	1	1.42e5	91532	5440	3568	inactive
